Results are given in words; binding and its absence hold for the method and conditions named. In cells and extracts the contact can be indirect. Some entries that bind do so weakly or less than the wild type.

By UniProt entry, the sequences of proteins in these tests, tags left out. Residues count along the entry.
UniProt Q64512: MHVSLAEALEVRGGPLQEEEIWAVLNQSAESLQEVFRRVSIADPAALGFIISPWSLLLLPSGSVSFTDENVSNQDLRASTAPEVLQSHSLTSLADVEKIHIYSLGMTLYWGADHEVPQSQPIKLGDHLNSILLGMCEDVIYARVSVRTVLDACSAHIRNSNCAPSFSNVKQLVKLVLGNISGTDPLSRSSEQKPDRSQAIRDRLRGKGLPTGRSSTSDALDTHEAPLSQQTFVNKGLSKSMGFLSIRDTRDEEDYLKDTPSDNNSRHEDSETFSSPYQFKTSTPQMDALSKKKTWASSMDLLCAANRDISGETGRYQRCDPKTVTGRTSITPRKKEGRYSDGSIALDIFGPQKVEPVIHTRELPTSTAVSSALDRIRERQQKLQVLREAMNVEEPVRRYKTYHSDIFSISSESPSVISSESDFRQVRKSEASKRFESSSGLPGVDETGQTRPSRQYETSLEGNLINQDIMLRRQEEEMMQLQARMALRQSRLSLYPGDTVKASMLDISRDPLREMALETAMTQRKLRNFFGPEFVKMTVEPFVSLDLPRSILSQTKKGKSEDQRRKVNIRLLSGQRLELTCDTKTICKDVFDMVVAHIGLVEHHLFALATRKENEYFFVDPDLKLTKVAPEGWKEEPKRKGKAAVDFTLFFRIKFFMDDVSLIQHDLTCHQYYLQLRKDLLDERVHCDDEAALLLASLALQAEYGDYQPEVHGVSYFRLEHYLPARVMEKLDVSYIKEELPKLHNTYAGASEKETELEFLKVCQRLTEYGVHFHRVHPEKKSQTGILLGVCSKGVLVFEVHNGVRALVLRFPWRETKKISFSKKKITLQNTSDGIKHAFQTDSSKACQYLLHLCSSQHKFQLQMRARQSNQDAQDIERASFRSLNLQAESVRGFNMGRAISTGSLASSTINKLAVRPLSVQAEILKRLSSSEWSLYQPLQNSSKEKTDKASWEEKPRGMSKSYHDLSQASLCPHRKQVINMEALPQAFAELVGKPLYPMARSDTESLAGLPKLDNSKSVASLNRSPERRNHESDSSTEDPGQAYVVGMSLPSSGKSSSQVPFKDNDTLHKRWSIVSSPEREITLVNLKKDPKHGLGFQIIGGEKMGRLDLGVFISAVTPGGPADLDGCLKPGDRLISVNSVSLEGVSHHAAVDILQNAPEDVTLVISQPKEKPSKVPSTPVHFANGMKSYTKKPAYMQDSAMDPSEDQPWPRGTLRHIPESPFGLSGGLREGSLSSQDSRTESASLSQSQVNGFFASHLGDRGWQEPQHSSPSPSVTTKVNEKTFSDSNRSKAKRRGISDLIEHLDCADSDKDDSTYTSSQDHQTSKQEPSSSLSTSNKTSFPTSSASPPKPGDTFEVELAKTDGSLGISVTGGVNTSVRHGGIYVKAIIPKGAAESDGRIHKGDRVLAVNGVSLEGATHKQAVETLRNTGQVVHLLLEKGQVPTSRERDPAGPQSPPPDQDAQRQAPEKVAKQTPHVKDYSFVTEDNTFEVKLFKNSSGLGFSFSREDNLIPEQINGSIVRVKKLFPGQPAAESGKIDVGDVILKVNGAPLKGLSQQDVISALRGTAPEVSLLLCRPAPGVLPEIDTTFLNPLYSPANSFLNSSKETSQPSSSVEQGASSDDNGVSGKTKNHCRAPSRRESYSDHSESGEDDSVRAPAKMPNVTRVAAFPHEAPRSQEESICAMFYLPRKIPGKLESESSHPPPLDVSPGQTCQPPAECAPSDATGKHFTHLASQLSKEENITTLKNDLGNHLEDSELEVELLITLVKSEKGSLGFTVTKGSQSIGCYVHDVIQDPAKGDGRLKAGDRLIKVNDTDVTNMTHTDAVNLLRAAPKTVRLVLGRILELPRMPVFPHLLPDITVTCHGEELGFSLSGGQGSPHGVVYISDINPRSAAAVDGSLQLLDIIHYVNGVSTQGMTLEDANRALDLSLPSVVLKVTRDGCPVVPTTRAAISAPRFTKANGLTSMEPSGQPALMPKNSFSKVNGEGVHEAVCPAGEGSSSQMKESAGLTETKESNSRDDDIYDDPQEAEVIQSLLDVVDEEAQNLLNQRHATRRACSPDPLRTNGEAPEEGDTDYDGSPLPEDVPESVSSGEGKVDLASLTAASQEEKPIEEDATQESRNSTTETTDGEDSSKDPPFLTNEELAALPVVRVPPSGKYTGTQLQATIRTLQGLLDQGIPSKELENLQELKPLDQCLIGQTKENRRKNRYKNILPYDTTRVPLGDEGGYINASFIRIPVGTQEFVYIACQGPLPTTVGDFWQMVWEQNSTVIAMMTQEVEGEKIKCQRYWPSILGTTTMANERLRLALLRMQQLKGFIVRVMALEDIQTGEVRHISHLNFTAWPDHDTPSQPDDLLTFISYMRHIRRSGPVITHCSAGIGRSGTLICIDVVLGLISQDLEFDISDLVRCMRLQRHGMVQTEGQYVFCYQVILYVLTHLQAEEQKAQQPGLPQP
UniProt P00520: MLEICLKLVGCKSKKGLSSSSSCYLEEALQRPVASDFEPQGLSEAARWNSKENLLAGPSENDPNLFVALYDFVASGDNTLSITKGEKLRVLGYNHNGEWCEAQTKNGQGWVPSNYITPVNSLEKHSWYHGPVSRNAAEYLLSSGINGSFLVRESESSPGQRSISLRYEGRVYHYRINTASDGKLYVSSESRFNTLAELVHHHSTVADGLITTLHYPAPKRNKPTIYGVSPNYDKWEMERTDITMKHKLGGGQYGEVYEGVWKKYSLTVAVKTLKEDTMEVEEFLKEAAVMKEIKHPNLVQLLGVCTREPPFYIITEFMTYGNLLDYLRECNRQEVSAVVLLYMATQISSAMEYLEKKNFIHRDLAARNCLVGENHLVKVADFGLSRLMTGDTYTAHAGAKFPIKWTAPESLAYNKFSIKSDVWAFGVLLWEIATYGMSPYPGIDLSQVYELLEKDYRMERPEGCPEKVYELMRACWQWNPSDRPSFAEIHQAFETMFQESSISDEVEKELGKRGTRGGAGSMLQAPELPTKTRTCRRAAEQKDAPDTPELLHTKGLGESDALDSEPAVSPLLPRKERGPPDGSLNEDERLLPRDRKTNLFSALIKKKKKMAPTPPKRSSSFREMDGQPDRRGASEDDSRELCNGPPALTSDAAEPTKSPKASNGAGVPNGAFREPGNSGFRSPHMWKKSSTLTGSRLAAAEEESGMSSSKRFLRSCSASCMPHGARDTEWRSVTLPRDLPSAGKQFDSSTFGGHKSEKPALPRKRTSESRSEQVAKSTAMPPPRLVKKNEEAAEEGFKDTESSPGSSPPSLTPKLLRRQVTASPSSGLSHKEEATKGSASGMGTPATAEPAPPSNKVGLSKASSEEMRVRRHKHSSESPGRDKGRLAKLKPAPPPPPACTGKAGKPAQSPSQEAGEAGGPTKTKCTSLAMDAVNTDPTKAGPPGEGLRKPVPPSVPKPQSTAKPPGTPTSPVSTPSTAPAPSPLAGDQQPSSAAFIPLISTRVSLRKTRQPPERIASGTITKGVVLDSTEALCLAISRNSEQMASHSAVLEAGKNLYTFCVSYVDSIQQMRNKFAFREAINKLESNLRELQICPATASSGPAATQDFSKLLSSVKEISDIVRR
UniProt O08529, residues 20-700: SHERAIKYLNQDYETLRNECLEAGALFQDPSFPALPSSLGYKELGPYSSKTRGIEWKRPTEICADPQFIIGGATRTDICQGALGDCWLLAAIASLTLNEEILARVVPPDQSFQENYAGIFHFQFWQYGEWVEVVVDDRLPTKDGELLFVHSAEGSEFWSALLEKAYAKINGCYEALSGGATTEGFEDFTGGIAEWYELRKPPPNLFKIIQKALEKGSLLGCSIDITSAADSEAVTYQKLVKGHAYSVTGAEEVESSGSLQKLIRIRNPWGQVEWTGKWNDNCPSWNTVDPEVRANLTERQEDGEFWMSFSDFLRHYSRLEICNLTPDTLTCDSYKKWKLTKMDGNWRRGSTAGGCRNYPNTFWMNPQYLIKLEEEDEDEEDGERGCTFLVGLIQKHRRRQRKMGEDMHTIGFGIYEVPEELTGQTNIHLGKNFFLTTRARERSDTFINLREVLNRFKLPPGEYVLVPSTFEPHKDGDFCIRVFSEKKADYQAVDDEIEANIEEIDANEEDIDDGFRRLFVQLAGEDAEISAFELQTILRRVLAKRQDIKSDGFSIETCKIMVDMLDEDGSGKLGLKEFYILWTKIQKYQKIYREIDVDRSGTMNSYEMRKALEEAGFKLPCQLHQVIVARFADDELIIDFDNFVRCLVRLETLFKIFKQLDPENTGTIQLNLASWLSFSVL
UniProt O35350: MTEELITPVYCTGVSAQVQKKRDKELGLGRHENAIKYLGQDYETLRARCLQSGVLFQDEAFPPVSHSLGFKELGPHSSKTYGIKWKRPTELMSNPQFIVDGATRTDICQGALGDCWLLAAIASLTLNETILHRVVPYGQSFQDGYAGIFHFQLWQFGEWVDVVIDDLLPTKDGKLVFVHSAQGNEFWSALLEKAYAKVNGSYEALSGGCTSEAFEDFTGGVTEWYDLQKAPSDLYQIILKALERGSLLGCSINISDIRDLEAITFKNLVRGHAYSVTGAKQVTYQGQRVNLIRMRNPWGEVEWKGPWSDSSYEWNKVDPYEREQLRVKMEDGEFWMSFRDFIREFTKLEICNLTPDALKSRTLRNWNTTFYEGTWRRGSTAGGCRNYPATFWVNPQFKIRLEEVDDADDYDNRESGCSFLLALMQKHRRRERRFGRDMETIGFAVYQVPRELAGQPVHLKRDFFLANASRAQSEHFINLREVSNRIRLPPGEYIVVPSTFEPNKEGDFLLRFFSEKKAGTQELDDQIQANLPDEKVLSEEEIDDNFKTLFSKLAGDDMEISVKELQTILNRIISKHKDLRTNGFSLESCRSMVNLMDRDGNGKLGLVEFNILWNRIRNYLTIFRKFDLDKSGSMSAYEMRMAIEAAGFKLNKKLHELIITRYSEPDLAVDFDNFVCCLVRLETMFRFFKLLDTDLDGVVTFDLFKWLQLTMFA

In experiment [1] the target is tyrosine phosphatase PTPN13 (mouse (endogenous in mouse brain)) (UniProt Q64512). Nature of the experiment: co-IP; PTPN13 immunoprecipitated with anti-PTPN13 antibody from P2 homogenates of mouse brain under non-denaturing conditions (Pierce Classic IP Kit); rabbit IgG as negative control; with or without 10 uM calpain-2 C-terminal peptide for 1 h before co-IP.
The target is the same in experiment [2]. Nature of the experiment: co-IP; competition: synthetic calpain-2 C-terminal peptide (10 uM, 1 h) added to P2 homogenates of mouse brain before immunoprecipitation of PTPN13; calpain-2 in the precipitate read by blot; only the binder purified.

Turning to “c-Abl (from UniProt P00520 1-1123) (enzyme)”, the binding result in experiment [1] was “binds”. On the same count and under the same terms, next, “calpain-2 (from UniProt O08529 20-700) (enzyme)”: “binds”; “calpain-1 (from UniProt O35350 1-713) (enzyme)”: “no binding”.

In the case of TIQLNLASWLSFSVL [calpain-2 C-terminal peptide], in experiment [2], the binding result was “binds”.

Source of the values: article PMC5603515.
